Reference: patent US20070026478A1, “Hemiasterlin affinity probes and their uses” (WYETH, priority 2002, published 2007)

Test system: tubulin derived from bovine brain or HeLa cells
Assay: Photoaffinity labeling of tubulin and peptide mapping of the labeling site
Format: binding, bovine; human
Conditions: for tubulin subunit photolabeled: bovine brain and HeLa cell tubulin, SDS-PAGE and fluorography; for photoaffinity labeling / binding site on α-tubulin (residues): combined chemical and enzymatic digests of photolabeled bovine brain tubulin

CN[C@H](C(=O)N[C@H](C(=O)N(C)[C@H](/C=C(\C)C(=O)O)C(C)C)C(C)(C)c1ccc(C(=O)c2ccccc2)cc1)C(C)(C)c1ccccc1 [Probe 2, N,β,β-trimethyl-L-phenylalanyl-4-benzoyl-N-[(1S,2E)-3-carboxy-1-isopropyl-2-butenyl]-N,β,β-trimethyl-L-phenylalaninamide]
tubulin subunit photolabeled: exclusively labels α-tubulin | photoaffinity labeling / binding site on α-tubulin (residues): 204-280

CN[C@H](C(=O)N[C@H](C(=O)N(C)[C@H](/C=C(\C)C(=O)O)C(C)C)C(C)(C)C)C(C)(C)c1ccc(C(=O)c2ccccc2)cc1 [Probe 1, 4-benzoyl-N,β,β-trimethyl-L-phenylalanyl-N^1-[(1S,2E)-3-carboxy-1-isopropylbut-2-enyl]-N^1,3-dimethyl-L-valinamide]
tubulin subunit photolabeled: binds exclusively to α-tubulin | photoaffinity labeling / binding site on α-tubulin (residues): 314-338 | cross-linking efficiency (under optimal conditions): approximately 1.5%
